In patent US20090088340A1, “METHODS FOR PREDICTING THE REDUCTION/OXIDATION (REDOX) REACTION ACTIVITY OF METAL COMPLEXES” (WESTERN CAROLINA UNIVERSITY, priority 2007, published 2009):

Test: Metal/fluoride association from F^− 19F NMR transverse relaxation enhancement (CPMG)
Format: physicochemical
Settings: for effect on T2 relaxation of the F^− 19F resonance: aqueous solutions, as a function of temperature
Excerpt: CPMG is the standard technique for measuring transverse NMR relaxation times (T2). See, for example, Braun et al., “150 and More Basic NMR Experiments,” Wiley-VCH Weinheim, 1998, page 159.
Rate constants for metal/probe association reactions can be related directly to the effects of the metal complex on the NMR relaxation rates of probe nuclei.
R2,obs−R2,dia=kapp,F−[M] (6)
where R2,dia is the relaxation rate in diamagnetic solution and kapp,F− is the apparent second order rate constant for metal/F^− association. The effects of eleven paramagnetic metal complexes, Fe^IIIEDTA(H2O)^−, Fe^IIIEDTA(OH)^2−, Fe^IIIPDTA^−, Fe^IIIDTPA^2−, Fe^III2O(TTHA)^2−, Fe^III(CN)6^3−, Mn^IIEDTA(H2O)^2−, Mn^IIPDTA^2−, Mn^IIβ-EDDADP^2−, Mn^IIPO4^−, and Cu/Zn SOD on F^− ion ^19F NMR transverse relaxation rates (R2=1/T2) were studied in aqueous solutions as a function of temperature.
Without being bound to any one theory, the curvature of the plot can arise from a similarity in the magnitudes of outer-sphere and inner-sphere contributions to relaxation (R2,OS and R2,IS). See Dwek, R. A., Nuclear Magnetic Resonance in Biochemistry, Clarendon, Oxford, 1973. […] See Dwek, R. A., Nuclear Magnetic Resonance in Biochemistry, Clarendon, Oxford, 1973. To estimate the contribution of R2,OS, relaxation enhancement of the ^19F resonance of the trifluoroacetate anion (tfa) by Fe^IIIDTPA^2− was measured. R2,IS for the tfa resonance should be negligible due to the low basicity of the anion and the absence of a through bond pathway for magnetic interaction between the paramagnetic center and the ^19F nuclei. For the tfa resonance, R2,obs decreased with increasing temperature consistent with an outer-sphere interaction.
where α, β, and γ are constants. The γ term for F^− relaxation in Equation 7 was set equal to the slope of the least squares line for the tfa data, and ΔH^‡, α, and β were refined to give the curved trend line following the F^− data in FIG. 6. Dashed lines (a) and (b) in FIG. 6 represent the predicted outer-sphere and inner-sphere contributions to the relaxation rate, respectively. The 25° C. association rate constant and activation enthalpy in Table 1 (and used in FIG. 2) are from this refinement.

Compound	effect on T2 relaxation of the F^− 19F resonance	reactivity of HF and F^− toward the complex (trend line of FIG. 8, pH 4.0 to 9.2)	Arrhenius temperature dependence of F^− 19F relaxation enhancement
Cu/Zn SOD: copper (Cu)/zinc (Zn) superoxide dismutase enzyme	measurably enhanced	–	–
O.O=C([O-])CN(CCN(CC(=O)[O-])CC(=O)[O-])CC(=O)[O-].[Mn+2] [Mn^IIEDTA(H2O)^2−]	measurably enhanced	–	–
O=C([O-])CN(CCN(CC(=O)[O-])CC(=O)[O-])CC(=O)[O-].[Fe+3].[OH-] [Fe^IIIEDTA(OH)^2−]	no measured effect	unreactive	–
O=P([O-])([O-])[O-].[Mn+2] [Mn^IIPO4 ^−]	measurably enhanced	–	–
O=C([O-])CN(CCN(CC(=O)[O-])CC(=O)[O-])CCN(CC(=O)[O-])CC(=O)[O-].[Fe+3] [Fe^IIIDTPA^2−, iron (III) diethylenetriaminepentaacetate]	measurably enhanced	–	did not display Arrhenius temperature dependence
O=C([O-])CCN(CCN(CCC(=O)[O-])CC(=O)[O-])CC(=O)[O-].[Mn+2] [Mn^IIβ-EDDADP^2−]	measurably enhanced	–	–
O.O=C([O-])CN(CCN(CC(=O)[O-])CC(=O)[O-])CC(=O)[O-].[Fe+3] [Fe^IIIEDTA(H2O)^−, iron (III) ethylenediamine-N,N,N″,N″-tetraacetic acid hydrate]	measurably enhanced	–	–
O=C([O-])CN(CCN(CCN(CC(=O)[O-])CC(=O)[O-])CC(=O)[O-])CCN(CC(=O)[O-])CC(=O)[O-].[Fe+3].[Fe+3].[O-2] [Fe^III2O(TTHA)^2−]	measurably enhanced	–	–
